The target of the data set is T1, DM (psNTP9-DM) S208L,P216R (Pisum sativum (pea)) (UniProt P52914).
T1 sequence (looked up, limits assumed): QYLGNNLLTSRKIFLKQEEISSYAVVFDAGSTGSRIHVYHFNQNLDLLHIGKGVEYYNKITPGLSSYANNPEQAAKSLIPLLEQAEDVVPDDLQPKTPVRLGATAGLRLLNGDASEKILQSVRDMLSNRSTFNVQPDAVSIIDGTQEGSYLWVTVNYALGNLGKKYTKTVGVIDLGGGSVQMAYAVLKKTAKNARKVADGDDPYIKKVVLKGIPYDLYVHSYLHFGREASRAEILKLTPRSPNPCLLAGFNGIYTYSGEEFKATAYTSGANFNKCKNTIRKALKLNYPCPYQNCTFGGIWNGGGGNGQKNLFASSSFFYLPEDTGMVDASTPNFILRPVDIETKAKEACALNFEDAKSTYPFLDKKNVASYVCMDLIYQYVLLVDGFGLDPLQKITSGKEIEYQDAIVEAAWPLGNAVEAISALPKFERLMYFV
Description: EMSA. To be noted: EMSA: 10 mM Tris pH 7.5, 50 mM KCl, 1 mM DTT, 1 ug/uL poly dI-dC, 20 uL, 200 ng protein, room temperature 20-30 min, 6% native PAGE, 0.5x TBE, protein in a lysate after overexpression. (In general: A gel shift assay detects complexes by their altered migration in electrophoresis.)

Consider three sequences from article PMC12656381.

The exact form of at least one protein or probe is not confirmed. At least one result comes from cells or an extract, where the contact may be indirect. Negatives hold for the conditions tested. Tags and fusion partners may be left off the protein sequences shown.

On to “AGTTATTTTAACTAATAAACAGATAAAAAGAAATAAAAAGTACTAAATTGGTAAATTATCGTAGTATCAT (double strand) [WRKY42 test]”, for which, for the setting “no significant shift”, the binding result is given as “no binding”.
As to “ATAATGTTACGCAGTTCCGAGCTTCGCTGACACGTGGGAGGTGGGATATAATATTTGCACGGGTTC (double strand) [PHM6 test]”, under “no significant binding”, the binding result is “no binding”.
In the case of “TTCACTTTTCAACTTATCCCTCTCAATCCCCACCACCACCACTCTCTATTCCCTCATATAGATAGATCAT (double strand) [PER50 test]”, the binding result (no significant shift) was “no binding”.
